According to US12350344 (dated 2025):

Experiment: general procedure: solution-phase peptide synthesis; N-ethoxycarbonyl-2-ethoxy-1,2-dihydroquinoline
Conditions: for step yield: coupling step

For “N-[4-(11,12-Didehydrodibenzo[b,f]azocin-5 (6H)-yl)-4-oxobutanoyl]glycylglycyl-D-prolyl-N-{4-[({[(11a′S)-11′-hydroxy-7′-methoxy-8′-(3-{[(11aS)-7-methoxy-2-(4-methoxyphenyl)-5-oxo-5,10,11,11a-tetrahydro-1H-pyrrolo[2,1-c][1,4]benzodiazepin-8-yl]oxy}propoxy)-5′-oxo-11′,11a′-dihydro-1′H-spiro[cyclopropane-1,2′-pyrrolo[2,1-c][1,4]benzodiazepine]-10′(5′H)-yl]carbonyl}oxy)methyl]phenyl}-L-isoleucinamide”, the step yield was 69%.
With “N-[4-(11,12-Didehydrodibenzo[b,f]azocin-5 (6H)-yl)-4-oxobutanoyl]glycylglycyl-D-valyl-N-{4-[({[(11a′S)-11′-hydroxy-7′-methoxy-8′-(3- {[(11aS)-7-methoxy-2-(4-methoxyphenyl)-5-oxo-5,10,11,11a-tetrahydro-1H-pyrrolo[2,1-c][1,4]benzodiazepin-8-yl]oxy}propoxy)-5′-oxo-11′,11a′-dihydro-1′H-spiro[cyclopropane-1,2′-pyrrolo[2,1-c][1,4]benzodiazepine]-10′(5′H)-yl]carbonyl}oxy)methyl]phenyl}-L-alaninamide” the step yield was 65%.
“N-[4-(11,12-Didehydrodibenzo[b,f]azocin-5 (6H)-yl)-4-oxobutanoyl]glycylglycyl-L-phenylalanyl-N-{4-[({[(11a′S)-11′-hydroxy-7′-methoxy-8′-(3- {[(11aS)-7-methoxy-2-(4-methoxyphenyl)-5-oxo-5,10,11,11a-tetrahydro-1H-pyrrolo[2,1-c][1,4]benzodiazepin-8-yl]oxy}propoxy)-5′-oxo-11′,11a′-dihydro-1′H-spiro[cyclopropane-1,2′-pyrrolo[2,1-c][1,4]benzodiazepine]-10′(5′H)-yl]carbonyl}oxy)methyl]phenyl}glycinamide” showed a step yield of 33%.
Substance “N-[4-(11,12-Didehydrodibenzo[b,f]azocin-5 (6H)-yl)-4-oxobutanoyl]glycylglycyl-L-prolyl-N-{4-[({[(11a′S)-11′-hydroxy-7′-methoxy-8′-(3- {[(11aS)-7-methoxy-2-(4-methoxyphenyl)-5-oxo-5,10,11,11a-tetrahydro-1H-pyrrolo[2,1-c][1,4]benzodiazepin-8-yl]oxy}propoxy)-5′-oxo-11′,11a′-dihydro-1′H-spiro[cyclopropane-1,2′-pyrrolo[2,1-c][1,4]benzodiazepine]-10′(5′H)-yl]carbonyl}oxy)methyl]phenyl}-L-isoleucinamide” has a step yield of 75%.
Work on “N-[4-(11,12-Didehydrodibenzo[b,f]azocin-5 (6H)-yl)-4-oxobutanoyl]glycylglycyl-L-prolyl-N-{4-[({[(11a′S)-11′-hydroxy-7′-methoxy-8′-(3-{[(11aS)-7-methoxy-2-(4-methoxyphenyl)-5-oxo-5,10,11,11a-tetrahydro-1H-pyrrolo[2,1-c][1,4]benzodiazepin-8-yl]oxy}propoxy)-5′-oxo-11′,11a′-dihydro-1′H-spiro[cyclopropane-1,2′-pyrrolo[2,1-c][1,4]benzodiazepine]-10′(5′H)-yl]carbonyl}oxy)methyl]phenyl}-L-leucinamide” yielded a conjugation yield (conjugation step) of 46%.
“N-[4-(11,12-Didehydrodibenzo[b,f]azocin-5 (6H)-yl)-4-oxobutanoyl]glycylglycyl-L-valyl-N-{4-[({[(11a′S)-8′-(3-{[(11aS)-2-(3,4-dimethoxyphenyl)-7-methoxy-5-oxo-5,10,11,11a-tetrahydro-1H-pyrrolo[2,1-c][1,4]benzodiazepin-8-yl]oxy}propoxy)-11′-hydroxy-7′-methoxy-5′-oxo-11′,11a′-dihydro-1′H-spiro[cyclopropane-1,2′-pyrrolo[2,1-c][1,4]benzodiazepine]-10′(5′H)-yl]carbonyl}oxy)methyl]phenyl}-L-alaninamide” gave a step yield of 58%.
With “N-[4-(11,12-Didehydrodibenzo[b,f]azocin-5 (6H)-yl)-4-oxobutanoyl]glycylglycyl-L-valyl-N-{4-[({[(11a′S)-8′-(3-{[(11aS)-2-(4-fluorophenyl)-7-methoxy-5-oxo-5,10,11,11a-tetrahydro-1H-pyrrolo[2,1-c][1,4]benzodiazepin-8-yl]oxy}propoxy)-11′-hydroxy-7′-methoxy-5′-oxo-11′,11a′-dihydro-1′H-spiro[cyclopropane-1,2′-pyrrolo[2,1-c][1,4]benzodiazepine]-10′(5′H)-yl]carbonyl}oxy)methyl]phenyl}-L-alaninamide” the step yield was 45%.
In the case of “N-[4-(11,12-Didehydrodibenzo[b,f]azocin-5 (6H)-yl)-4-oxobutanoyl]glycylglycyl-L-valyl-N-{4-[({[(11a′S)-8′-(3-{[(11aS)-2-{4-[(acetyloxy)methyl]phenyl}-7-methoxy-5-oxo-5,10,11,11a-tetrahydro-1H-pyrrolo[2,1-c][1,4]benzodiazepin-8-yl]oxy}propoxy)-11′-hydroxy-7′-methoxy-5′-oxo-11′,11a′-dihydro-1′H-spiro[cyclopropane-1,2′-pyrrolo[2,1-c][1,4]benzodiazepine]-10′(5′H)-yl]carbonyl}oxy)methyl]phenyl}-L-alaninamide”, the step yield is reported as 54%.
Substance “N-[4-(11,12-Didehydrodibenzo[b,f]azocin-5 (6H)-yl)-4-oxobutanoyl]glycylglycyl-L-valyl-N-{4-[({[(11a′S)-8′-[3-({(11aS)-2-[4-(dimethylamino)phenyl]-7-methoxy-5-oxo-5,10,11,11a-tetrahydro-1H-pyrrolo[2,1-c][1,4]benzodiazepin-8-yl}oxy)propoxy]-11′-hydroxy-7′-methoxy-5′-oxo-11′,11a′-dihydro-1′H-spiro[cyclopropane-1,2′-pyrrolo[2,1-c][1,4]benzodiazepine]-10′(5′H)-yl]carbonyl}oxy)methyl]phenyl}-L-alaninamide” has a step yield of 49%.
“N-[4-(11,12-Didehydrodibenzo[b,f]azocin-5 (6H)-yl)-4-oxobutanoyl]glycylglycyl-L-valyl-N-{4-[({[(11a′S)-11′-hydroxy-7′-methoxy-8′-(3-{[7-methoxy-2-(6-methoxy-3-pyridinyl)-5-oxo-5,10,11,11a-tetrahydro-1H-pyrrolo[2,1-c][1,4]benzodiazepin-8-yl]oxy}propoxy)-5′-oxo-11′,11a′-dihydro-1′H-spiro[cyclopropane-1,2′-pyrrolo[2,1-c][1,4]benzodiazepine]-10′(5′H)-yl]carbonyl}oxy)methyl]phenyl}-L-alaninamide” showed a step yield of 8%.
For “N-[4-(11,12-Didehydrodibenzo[b,f]azocin-5 (6H)-yl)-4-oxobutanoyl]glycylglycyl-L-valyl-N-{4-[({[(11a′S)-11′-hydroxy-7′-methoxy-8′-(3-{[7-methoxy-2-(6-methyl-3-pyridinyl)-5-oxo-5,10,11,11a-tetrahydro-1H-pyrrolo[2,1-c][1,4]benzodiazepin-8-yl]oxy}propoxy)-5′-oxo-11′,11a′-dihydro-1′H-spiro[cyclopropane-1,2′-pyrrolo[2,1-c][1,4]benzodiazepine]-10′(5′H)-yl]carbonyl}oxy)methyl]phenyl}-L-alaninamide”, the step yield was 11%.
